Assay results: paper doi:10.1101/2025.11.10.687720, “Magnetosome organelles are organized through interactions between McaA and McaB that alter the dynamics of the bacterial actin-like protein MamK” (bioRxiv, 2025)

How the values were obtained:
[1] = target: McaA-GFP (Magnetospirillum magneticum AMB-1); assay: affinity purification with mass spectrometry; GFP-tagged bait expressed in AMB-1, lysate of 20 L of culture on GFP-Trap agarose beads, eluted with 200 mM glycine pH 2.5; GFP alone as control
[2] = target: McaB-GFP (Magnetospirillum magneticum AMB-1); assay: as above

B1: MamA (protein, UniProt Q2W8Q0 1-217)
chain: MSSKPSDILDEVTLYAHYGLSVAKKLGMNMVDAFRAAFSVNDDIRQVYYRDKGISHAKAGRYSQAVMLLEQVYDADAFDVDVALHLGIAYVKTGAVDRGTELLERSLADAPDNVKVATVLGLTYVQVQKYDLAVPLLIKVAEANPINFNVRFRLGVALDNLGRFDEAIDSFKIALGLRPNEGKVHRAIAFSYEQMGRHEEALPHFKKANELDEGASV
binding [1]: binds
binding [2]: binds

B2: MamJ (protein, UniProt Q2W8Q7 1-506)
chain: MANNRRDRDKGDGSQGEGLSAGGGMPSEPEIVSVTVHPTPTLAVSLKPAQQGDIWASLLESSPWSANHGGRIEPVQPSPAPTRPTESPSVGDLVSRWSQPIWRTPSRVEEVETPESNFVIELEASQPITSDITVSVSDLVIEVQPIQTTEAEPEPELPVAEPEPGVVPVDVVAEAEPEPELPVAEPEPGVVPVDVVAEAEPEPELPVAEPEPEVVPVDVVAEAEPEPELPVAEPEPEVVPVDVVAEAEPEPELPVAEPEPEVVPVDVVAEAEPEPELPVAAPEPEVLPVEVVAEAEPEPELPVAAPEPEVLPVEVVAEAEPEPELPVAAPEPEVVPVDVVAEAEPEPELPVAEPELVHEAAVSEPVAESIEDAVAVPAPATNFGLAELMQAAAAMAPVLASPPSVAPAAKPVREPAKKRKAPPVRKKVATVQDVPVEDLLGGIFGIAGSAVRSVLSLGAGVVGGVVKGGRVIGDNVVAGARRLTGSAEGSCGTCSTSQCDTVGKKK
binding [2]: binds

B3: Mms6 (protein, UniProt Q2W8R5 1-133)
chain: MGEMEREGAAAKAGAAKTGAAKTGTVAKTGIAAKTGVATAVAAPAAPANVAAAQGAGTKVALGAGKAAAGAKVVGGTIWTGKGLGLGLGLGLGAWGPIILGVVGAGAVYAYMKSRDIESAQSDEEVELRDALA
binding [2]: binds

B4: MamK (protein, UniProt Q2W8Q6 1-347)
chain: MSEGEGQAKNRLFLGIDLGTSHTAVMSSRGKKFLLKSVVGYPKDVIGLKLLGRPYVVGDEAFEMRSYLDIRYPLQDGVLSEISDRDIEVARHLLTHVVKSAEPGPNDEICAVIGVPARASAANKALLLKMAQEVVHTALVVSEPFMVGYGLDKLINTIIVDIGAGTTDICALKGTVPGPEDQVTLTKAGNYVDERLQNAILERHPELQMNVNVACAVKEQFSFVGTPTEVASFEFRAAGKPVRADVTEPVKIACEALMPDIIESIETLLRSFQPEYQATVLQNIVFAGGGSRIRGLAAYVKEKLRPFGDANVTCVKDPTFDGCRGALRLAEELPPQYWRQLGDVSGS
binding [1]: binds

Results are given in words; binding and its absence hold for the method and conditions named. Binding seen in cells or lysates may run through a third protein. A yes stands for co-enrichment or nearness to the bait. Other partners may have been found.
